# Reference: the supplement of paper PMC8728848
# The other results are listed elsewhere or left out.
# What was measured:
# Experiment in all cases: glycan array binding signal (z-score within array); higher = stronger binding
# Settings in all cases: glycan notation: IUPAC condensed, linker removed
# [1] = molecular target: Gal(b1-4)GlcNAc(b1-2)Man(a1-6)[GlcNAc(b1-2)Man(a1-3)]Man(b1-4)GlcNAc(b1-4)GlcNAc
# Summary of the method: (§1)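 Arrays were curated from the Consortium for Functional Glycomics database, 3228 in total, and kept only where the protein sequence was available. Binding is expressed as a within-array Z-score. This score was averaged across arrays of the same protein sequence at different concentrations or buffers and across linkers, and negative values can be read as non-binding.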
# [2] = molecular target: Gal(b1-4)GlcNAc(b1-2)Man(a1-6)[Man(a1-3)]Man(b1-4)GlcNAc(b1-4)GlcNAc
# Summary of the method: as §1
# [3] = molecular target: Gal(b1-4)GlcNAc(b1-2)[Gal(b1-4)GlcNAc(b1-4)]Man(a1-3)[Gal(b1-4)GlcNAc(b1-2)Man(a1-6)]Man(b1-4)GlcNAc(b1-4)GlcNAc
# Summary of the method: as §1
# [4] = molecular target: Gal(b1-4)GlcNAc(b1-2)[Gal(b1-4)GlcNAc(b1-4)]Man(a1-3)[Gal(b1-4)GlcNAc(b1-2)[Gal(b1-4)GlcNAc(b1-6)]Man(a1-6)]Man(b1-4)GlcNAc(b1-4)GlcNAc
# Summary of the method: as §1
# [5] = molecular target: Gal(b1-4)GlcNAc(b1-2)[Gal(b1-4)GlcNAc(b1-4)]Man(a1-3)[GlcNAc(b1-4)][Gal(b1-4)GlcNAc(b1-2)Man(a1-6)]Man(b1-4)GlcNAc(b1-4)GlcNAc
# Summary of the method: as §1
# [6] = molecular target: Gal(b1-4)GlcNAc(b1-2)[Gal(b1-4)GlcNAc(b1-4)]Man(a1-3)[GlcNAc(b1-4)][Gal(b1-4)GlcNAc(b1-2)[Gal(b1-4)GlcNAc(b1-6)]Man(a1-6)]Man(b1-4)GlcNAc(b1-4)GlcNAc
# Summary of the method: as §1
# [7] = molecular target: Gal(b1-4)GlcNAc(b1-2)[Gal(b1-4)GlcNAc(b1-6)]Man(a1-6)[Gal(b1-4)GlcNAc(b1-2)Man(a1-3)]Man(b1-4)GlcNAc(b1-4)GlcNAc
# Summary of the method: as §1
# [8] = molecular target: Gal(b1-4)GlcNAc(b1-2)[Gal(b1-4)GlcNAc(b1-6)]Man(a1-6)[Gal(b1-4)GlcNAc(b1-2)Man(a1-3)]Man(b1-4)GlcNAc(b1-4)[Fuc(a1-6)]GlcNAc
# Summary of the method: as §1
# [9] = molecular target: Gal(b1-4)GlcNAc(b1-2)[Gal(b1-4)GlcNAc(b1-6)]Man(a1-6)[GlcNAc(b1-4)][Gal(b1-4)GlcNAc(b1-2)Man(a1-3)]Man(b1-4)GlcNAc(b1-4)GlcNAc
# Summary of the method: as §1
# [10] = molecular target: Gal(b1-4)GlcNAc(b1-2)[Gal(b1-4)GlcNAc(b1-6)]Man(a1-6)[GlcNAc(b1-4)][Gal(b1-4)GlcNAc(b1-2)[Gal(b1-4)GlcNAc(b1-4)]Man(a1-3)]Man(b1-4)GlcNAc(b1-4)[Fuc(a1-6)]GlcNAc
# Summary of the method: as §1
# [11] = molecular target: Gal(b1-4)GlcNAc(b1-3)Gal(b1-3)GalNAc
# Summary of the method: as §1
# [12] = molecular target: Gal(b1-4)GlcNAc(b1-3)Gal(b1-3)GlcNAc
# Summary of the method: as §1
# [13] = molecular target: Gal(b1-4)GlcNAc(b1-3)Gal(b1-4)Glc
# Summary of the method: as §1
# [14] = molecular target: Gal(b1-4)GlcNAc(b1-3)Gal(b1-4)GlcNAc
# Summary of the method: as §1
# [15] = molecular target: Gal(b1-4)GlcNAc(b1-3)Gal(b1-4)GlcNAc(b1-2)Man(a1-3)[Gal(b1-4)GlcNAc(b1-3)Gal(b1-4)GlcNAc(b1-2)Man(a1-6)]Man(b1-4)GlcNAc(b1-4)GlcNAc
# Summary of the method: as §1
# [16] = molecular target: Gal(b1-4)GlcNAc(b1-3)Gal(b1-4)GlcNAc(b1-2)Man(a1-3)[Gal(b1-4)GlcNAc(b1-3)Gal(b1-4)GlcNAc(b1-2)Man(a1-6)]Man(b1-4)GlcNAc(b1-4)[Fuc(a1-6)]GlcNAc
# Summary of the method: as §1
# [17] = molecular target: Gal(b1-4)GlcNAc(b1-3)Gal(b1-4)GlcNAc(b1-2)[Gal(b1-4)GlcNAc(b1-3)Gal(b1-4)GlcNAc(b1-6)]Man(a1-6)[Gal(b1-4)GlcNAc(b1-3)Gal(b1-4)GlcNAc(b1-2)Man(a1-3)]Man(b1-4)GlcNAc(b1-4)GlcNAc
# Summary of the method: as §1
# [18] = molecular target: Gal(b1-4)GlcNAc(b1-3)Gal(b1-4)GlcNAc(b1-2)[Gal(b1-4)GlcNAc(b1-3)Gal(b1-4)GlcNAc(b1-6)]Man(a1-6)[Gal(b1-4)GlcNAc(b1-3)Gal(b1-4)GlcNAc(b1-2)Man(a1-3)]Man(b1-4)GlcNAc(b1-4)[Fuc(a1-6)]GlcNAc
# Summary of the method: as §1
# [19] = molecular target: Gal(b1-4)GlcNAc(b1-3)Gal(b1-4)GlcNAc(b1-3)Gal(b1-4)GlcNAc
# Summary of the method: as §1
# [20] = molecular target: Gal(b1-4)GlcNAc(b1-3)Gal(b1-4)GlcNAc(b1-3)Gal(b1-4)GlcNAc(b1-2)Man(a1-3)[Gal(b1-4)GlcNAc(b1-3)Gal(b1-4)GlcNAc(b1-3)Gal(b1-4)GlcNAc(b1-2)Man(a1-6)]Man(b1-4)GlcNAc(b1-4)GlcNAc
# Summary of the method: as §1
# [21] = molecular target: Gal(b1-4)GlcNAc(b1-3)Gal(b1-4)GlcNAc(b1-3)Gal(b1-4)GlcNAc(b1-2)Man(a1-3)[Gal(b1-4)GlcNAc(b1-3)Gal(b1-4)GlcNAc(b1-3)Gal(b1-4)GlcNAc(b1-2)Man(a1-6)]Man(b1-4)GlcNAc(b1-4)[Fuc(a1-6)]GlcNAc
# Summary of the method: as §1
# [22] = molecular target: Gal(b1-4)GlcNAc(b1-3)Gal(b1-4)GlcNAc(b1-3)Gal(b1-4)GlcNAc(b1-2)[Gal(b1-4)GlcNAc(b1-3)Gal(b1-4)GlcNAc(b1-3)Gal(b1-4)GlcNAc(b1-6)]Man(a1-6)[Gal(b1-4)GlcNAc(b1-3)Gal(b1-4)GlcNAc(b1-3)Gal(b1-4)GlcNAc(b1-2)Man(a1-3)]Man(b1-4)GlcNAc(b1-4)[Fuc(a1-6)]GlcNAc
# Summary of the method: as §1
binder,measurement,setting,value
"XTP3-B-MRH2 (Homo sapiens), Q96DZ1 (protein) EFLSGSYCFRGGVGWWKYEFCYGKHVHQYHEDKDSGKTSVVVGTWNQEEHIEWAKKNTARAYHLQDDGTQTVRMVSHFYGNGDICDITDKPRQVTVKLKCKESDSPHAVTVYMLEPHSCQYILGVESPVICKILDTA",glycan array binding signal (z-score),[1],-1.09
same,glycan array binding signal (z-score),[2],2.47
same,glycan array binding signal (z-score),[3],-0.599
same,glycan array binding signal (z-score),[4],-0.455
same,glycan array binding signal (z-score),[5],-0.36
same,glycan array binding signal (z-score),[6],-0.691
same,glycan array binding signal (z-score),[7],-0.993
same,glycan array binding signal (z-score),[8],-0.776
same,glycan array binding signal (z-score),[9],0.887
same,glycan array binding signal (z-score),[10],-0.209
same,glycan array binding signal (z-score),[11],-0.252
same,glycan array binding signal (z-score),[12],0.052
same,glycan array binding signal (z-score),[13],1.56
same,glycan array binding signal (z-score),[14],0.386
same,glycan array binding signal (z-score),[15],3.21
same,glycan array binding signal (z-score),[16],1.88
same,glycan array binding signal (z-score),[17],1.73
same,glycan array binding signal (z-score),[18],1.2
same,glycan array binding signal (z-score),[19],2.01
same,glycan array binding signal (z-score),[20],0.893
same,glycan array binding signal (z-score),[21],-0.168
same,glycan array binding signal (z-score),[22],-0.365

# For convenience, some entries already given.
binder,measurement,setting,value
"XTP3-B-MRH2 (Homo sapiens), Q96DZ1 (protein) EFLSGSYCFRGGVGWWKYEFCYGKHVHQYHEDKDSGKTSVVVGTWNQEEHIEWAKKNTARAYHLQDDGTQTVRMVSHFYGNGDICDITDKPRQVTVKLKCKESDSPHAVTVYMLEPHSCQYILGVESPVICKILDTA",glycan array binding signal (z-score),[1],-1.09
same,glycan array binding signal (z-score),[2],2.47
